# Measurements from PubChem BioAssay AID624297 (National Center for Advancing Translational Sciences (NCATS), 2012).
# Out of some 340,000 compounds screened, about 6,200 (1.8%) were called active. This list was built around the results that the source calls inconclusive (neither active nor inactive); the mix of calls is not that of the screen. Calls come from the whole dose curve; as a rule, active = well fitted activation curve with a large enough effect; inconclusive = small, poorly fitted or top-dose-only effect; inactive = no such curve, though single readings can be large or run the other way. Potencies of inconclusive entries are doubtful fits and often do not repeat.
# Assay: A quantitative high throughput screen for small molecules that induce DNA re-replication in SW480 colon adenocarcinoma cells. Note: nearly all actives have a fitted effect of over 55% in size.
# Details: Hoechst DNA content imaging, 48 h; series mostly up to 46.1 µM
# Summary of the method: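 Compounds, transferred as 23 nL by pin tool, were incubated with cells for 48 hr; DNA content per nucleus was then quantified by Hoechst staining and fluorescence plate imaging.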
# Potency is the fitted concentration of half-maximal effect.
row,Structure (SMILES),Potency
1,Cc1ccc(NC(=O)c2cc(S(=O)(=O)N(C)C)ccc2N2CCCC2)cc1F,"inconclusive: 32.6 µM [activator, partial curve, poor fit]"
2,CCc1ccc2c(CC(=O)NNC(=O)c3ccncc3)coc2c1,inactive
3,Cc1c(C(=O)O)cccc1-n1c(C)cc(/C=N/NC(=O)c2cc3ccccc3o2)c1C,"inconclusive: 25.9 µM [activator, single point]"
4,Cc1ccc(C(=O)NNC(=O)c2ccccc2O)cc1S(=O)(=O)N1CCCCC1,"inconclusive: 16.4 µM [activator, single point]"
5,COc1ccc(CCNC/C=C/c2ccccc2)cc1,"inconclusive: 5.17 µM [activator, partial curve, poor fit]"
6,Cc1ccc(SCC(=O)OCC(=O)NC2(C#N)CCCCC2)cc1,"inconclusive: 4.11 µM [activator, full curve, poor fit]"
7,O=C(CC1C(=O)NCCN1Cc1ccccc1C(F)(F)F)NC1CCC1 (stereo not drawn),"inconclusive: 0.58 µM [activator, full curve, poor fit]"
8,N#Cc1nc(-c2ccc(F)cc2)oc1N1CCCC1,inactive
9,CC1C/C(=C\c2ccccc2[N+](=O)[O-])c2nc3ccccc3c(C(=O)O)c2C1 (stereo not drawn),inactive
10,CCCC(=O)N1CCN(c2ccc(NC(=O)c3ccc(N4CCCC4)c([N+](=O)[O-])c3)cc2Cl)CC1,"inconclusive: 2.91 µM [activator, single point]"
11,C(=C\c1nc(N2CCCC2)c2ccccc2n1)/c1ccccc1,"inconclusive: 16.4 µM [activator, single point]"
12,CC(C)CCNC(=O)COC(=O)/C=C/c1ccc2ccccc2n1,inactive
13,CC(=O)c1cccc(NC(=O)c2ccoc2C)c1,"inconclusive: 29.1 µM [activator, single point]"
14,Cc1ccc(N(CC(=O)Nc2cc(C)cc(C)c2)S(=O)(=O)c2c(C)noc2C)cc1,"inconclusive: 29.1 µM [activator, single point]"
15,Cc1cccc(C)c1NC(=O)COC(=O)c1ccc(N2CCCC2)c([N+](=O)[O-])c1,inactive
16,COc1cccc(C(=O)CSc2nnc(COc3cccc4cccnc34)o2)c1,active: 5.17 µM
17,C=C1CC(COc2ccc3c(C)c(Cl)c(=O)oc3c2)(c2ccccc2)OC1=O (stereo not drawn),"inconclusive: 4.61 µM [activator, single point]"
18,Cc1ccc(S(=O)(=O)c2nnn3c2nc(N2CCOCC2)c2ccccc23)cc1C,inactive
19,O=C1c2ccccc2NC(c2ccc(Cl)cc2Cl)N1O (stereo not drawn),"inconclusive: 20.6 µM [activator, single point]"
20,O=C(CNC(=O)c1ccccc1F)NCc1cccnc1,inactive
21,CC1CCC(NC(=O)CN(C)S(=O)(=O)c2ccc3c(c2)c(=O)n(C)c(=O)n3C)CC1 (stereo not drawn),"inconclusive: 29.1 µM [activator, single point]"
22,Cc1cccc(S(=O)(=O)c2c(N)n(/N=C/c3ccco3)c3nc4ccccc4nc23)c1,inactive

row,Structure (SMILES),Potency
1,COc1ccc(N(C(C)C(=O)N/N=C/c2ccc(OCC(C)C)cc2)S(C)(=O)=O)cc1 (stereo not drawn),active: 4.11 µM
2,CCCCCCc1cc2cc(S(=O)(=O)c3ccc(F)c(Cl)c3)c(=O)oc2cc1O,active: 2.59 µM
3,CS(=O)(=O)c1nc(S(=O)(=O)c2ccc(Cl)cc2)c(N2CCN(CCO)CC2)s1,"inconclusive: 0.651 µM [activator, partial curve, poor fit]"
4,CCOC(=O)C1CCCN(S(=O)(=O)c2nc3nc(C)cc(C)n3n2)C1 (stereo not drawn),"inconclusive: 18.4 µM [activator, single point]"
5,O=C1CC2(CCN(C(=O)c3ccc(F)cc3)CC2)Oc2ccccc21,inactive
6,C=CCSC(=C(C#N)C#N)c1cc2c([nH]1)CCCC2,"inconclusive: 20.6 µM [activator, single point]"
7,COc1ccccc1NC(=O)Cn1nnc(C(=O)NCCc2ccccc2)c1N,"inconclusive: 18.4 µM [activator, single point]"
8,CN(C)C(=O)CCc1ccc2c3c([nH]c2c1)[C@]1(C)[C@@H](C(=O)N2CCOCC2)C[C@H](CC(=O)NCC24CC5CC(CC(C5)C2)C4)C(=O)N1CC3,"inconclusive: 18.4 µM [activator, single point]"
9,CC(C)(C)N1CC(c2nc3ccccc3n2Cc2ccc(Cl)cc2)CC1=O (stereo not drawn),inactive
10,O=C(CN1c2ccccc2Sc2ccccc21)NNC(=S)Nc1ccc(Cl)cc1,inactive
11,COc1cc2nc(N3CCN(C(=O)OCc4ccccc4)[C@H](C(=O)NC(C)(C)C)C3)nc(N)c2cc1OC,"inconclusive: 25.9 µM [activator, single point]"
12,CCOC(=O)C(=Cc1cn(C)c2ccc(S(=O)(=O)N(C)C)cc12)C(=O)OCC,"inconclusive: 23.1 µM [activator, partial curve, poor fit]"
13,COc1ccccc1CC1CC(=O)N(c2ccccc2)C1=O (stereo not drawn),"inconclusive: 6.51 µM [activator, single point]"
14,COc1ccc(C(=O)N2CCN(c3ccc(N4CCOCC4)nn3)CC2)cc1OC,"inconclusive: 29.1 µM [activator, single point]"
15,COc1cc(C(=O)NCC2CCCO2)ccc1OCc1ccc(Cl)cc1 (stereo not drawn),inactive
16,COc1ccc(NC(=O)COC(=O)CN2C(=O)C3CCCCC3C2=O)cc1OC (stereo not drawn),inactive
17,O=C(Cc1cc(=O)oc2cc(O)ccc12)N[C@@H](Cc1c[nH]c2ccccc12)C(=O)O,"inconclusive: 9.2 µM [activator, partial curve]"
18,Nc1cccc2c1C(=O)N(C(=O)/C=C/c1ccc(F)cc1)C2=O,"inconclusive: 29.1 µM [activator, single point]"
19,O=C(COC(=O)c1cccc(Cl)c1)NC(=O)NCc1ccccc1,inactive
20,O=C(NCCc1ccccc1)C(=O)c1cn(CC(=O)N2CCCC2)c2ccccc12,"inconclusive: 29.1 µM [activator, single point]"
21,CC(C)(O)[C@H](O)COc1c2occc2cc2ccc(=O)oc12,"inconclusive: 0.0116 µM [activator, full curve, poor fit]"

# Rewritten as tab-separated lines: twelve of the compounds above
row	Structure (SMILES)	Potency
5	COc1ccc(CCNC/C=C/c2ccccc2)cc1	inconclusive: 5.17 µM [activator, partial curve, poor fit]
6	Cc1ccc(SCC(=O)OCC(=O)NC2(C#N)CCCCC2)cc1	inconclusive: 4.11 µM [activator, full curve, poor fit]
10	CCCC(=O)N1CCN(c2ccc(NC(=O)c3ccc(N4CCCC4)c([N+](=O)[O-])c3)cc2Cl)CC1	inconclusive: 2.91 µM [activator, single point]
13	CC(=O)c1cccc(NC(=O)c2ccoc2C)c1	inconclusive: 29.1 µM [activator, single point]
15	Cc1cccc(C)c1NC(=O)COC(=O)c1ccc(N2CCCC2)c([N+](=O)[O-])c1	inactive
20	O=C(CNC(=O)c1ccccc1F)NCc1cccnc1	inactive
10	O=C(CN1c2ccccc2Sc2ccccc21)NNC(=S)Nc1ccc(Cl)cc1	inactive
12	CCOC(=O)C(=Cc1cn(C)c2ccc(S(=O)(=O)N(C)C)cc12)C(=O)OCC	inconclusive: 23.1 µM [activator, partial curve, poor fit]
13	COc1ccccc1CC1CC(=O)N(c2ccccc2)C1=O (stereo not drawn)	inconclusive: 6.51 µM [activator, single point]
15	COc1cc(C(=O)NCC2CCCO2)ccc1OCc1ccc(Cl)cc1 (stereo not drawn)	inactive
16	COc1ccc(NC(=O)COC(=O)CN2C(=O)C3CCCCC3C2=O)cc1OC (stereo not drawn)	inactive
18	Nc1cccc2c1C(=O)N(C(=O)/C=C/c1ccc(F)cc1)C2=O	inconclusive: 29.1 µM [activator, single point]
